{
  "source": "patent EP0323865A1",
  "about": "“Novel immunosuppressant agent” (Merck & Co., Inc., priority 1988, dated 1989)",
  "origin": "cited, not measured here",
  "details": "reputed; EPO Publication No. 0184162; cited from earlier work",
  "note": "At least one structure is not confirmed: it was looked up by name or label, or the drawing left a doubt.",
  "data": [
    {"compound": "C=CC[C@@H]1/C=C(\\C)C[C@H](C)C[C@H](OC)[C@H]2O[C@@](O)(C(=O)C(=O)N3CCCC[C@H]3C(=O)O[C@H](/C(C)=C/[C@@H]3CC[C@@H](O)[C@H](OC)C3)[C@H](C)[C@@H](O)CC1=O)[C@H](C)C[C@@H]2OC", "note": "[FK-506]", "values": [
      {"measurement": "effectiveness compared with cyclosporin", "value": 100, "unit": "times"}
    ]}
  ]
}
